In US20250275924A1, “Anticholinergic Agents and Muscarinic Agonists for the Treatment of Demodex Related Conditions” (ATTILLAPS HOLDINGS INC., priority 2022, published 2025):
At least one compound was matched to its structure with a doubt left.

Test system: Demodex mites
Test: in vitro assay of Demodex mite paralysis and/or killing (survival time)
Protocol: FIG. 1A-1E is a table summary of an in vitro assay of various agents on Demodex mites survival time and paralysis.
FIG. 1A-1E is a summary of various agents tested in an in vitro assay of Demodex mite paralysis and/or killing. The efficacy of various agents are evaluated in Demodex characterization and/or survival time experiments, including in terms of LT50 (time at which 50% of Demodex mites are killed) and/or associated time (in hours: min or total minutes).

Compound | paralyzes Demodex mites (grouping of active agents in the summary, data in FIG. 1A-1E (not reproduced)) | activity against the mite (in vitro assays)
CN1CCN(C2=Nc3cc(Cl)ccc3Nc3ccccc32)CC1 [clozapine] | paralyzes Demodex mites | –
C[C@H]1c2cccc(O)c2C(=O)C2=C(O)[C@]3(O)C(=O)C(C(N)=O)=C(O)[C@@H](N(C)C)[C@@H]3[C@@H](O)[C@@H]21 [doxycycline] | – | does have activity against the mite
